Measurements from patent US20040067889A1, “Stabilization of brain natriuretic peptide (BNP) in blood samples, methods and compositions related thereto” (priority 2002, published 2004).
Read-outs that look alike come from different tables or passages of the source. At least one structure is not confirmed: it was looked up by name or label, or the drawing left a doubt. *1 amine or outer side, *2 acyl side, *3 side chain or, on linkers, in order; H or OH if unused. Where a SMILES comes first, the peptide text is derived from it. CO = O=C([*:1])[*:2]

Tested on: endogenous proteases
Assay: Stability of synthetic BNP-32 spiked into normal human plasma with protease inhibitors (chemiluminescent BNP immunoassay)
Assay type: biochemical
Settings: for Recovery versus 1st run: 6 days at 4° C.
[1] = IHP (EDTA) with synthetic BNP-32 added, each inhibitor 50 μg/ml
[2] = IHPP + 10 ng/ml BNP, 4° C., AEBSF 200 μg/ml, antipain 100 μg/ml, benzamidine 14 mM, PPACK 50 μg/ml, or all four
[3] = Plasma A, spiked synthetic BNP, inhibitor 0.62 μg/ml
[4] = Plasma A, spiked synthetic BNP, inhibitor 1.85 μg/ml
[5] = Plasma A, spiked synthetic BNP, inhibitor 5.56 μg/ml
[6] = Plasma A, spiked synthetic BNP, inhibitor 16.7 μg/ml
[7] = Plasma A, spiked synthetic BNP, inhibitor 50 μg/ml

CC(C)[C@H](NC(=O)[C@H](CCCNC(=N)N)NC(=O)N[C@@H](Cc1ccccc1)C(=O)O)C(=O)N[C@H](C=O)CCCNC(=N)N [antipain, N-(Nα-carbonyl-Arg-Val-Arg-al)Phe] ({Phe-CO}-Arg-Val-Arg-aldehyde)
% Recovery vs 1st run (Time 0): 99.3% | BNP, 1st run (Time 0): 828.3 pg/mL | BNP, 3 hours at 4° C.: 894.2 pg/mL | BNP, 17 hours at 4° C.: 932.4 pg/mL | BNP, 40 hours at 4° C.: 944.2 pg/mL | BNP, 6 days at 4° C.: 822.2 pg/mL | Amount of BNP Present After 24 hr/4° C. [1]: 2234.34 | Amount of BNP Present After 90 hr/4° C. [1]: 1880.94 | Amount of BNP Present Before Storage, Day 0 [1]: 2194.06 | BNP Amount % Change (IHP with synthetic BNP-32 added, each inhibitor 50 μg/ml, 90 hr/4° C. vs Day 0): −14.3% | 1 week (RLU) [2]: 3379524 RLU | 2 weeks (RLU) [2]: 2400716 RLU | 4 weeks % Signal Recovered [2]: 36.9% | 4 weeks (RLU) [2]: 1469626 RLU | 72 hrs (RLU) [2]: 3600518 RLU | 22 days (RLU) [2]: 2085558 RLU | Day 0 (RLU) [2]: 3985365 RLU | inhibitor effect at 4 weeks (IHPP, exogenous BNP, Table 5): could be observed for 4 weeks | BNP recovered after 3 day storage (IHPP, exogenous BNP, individual inhibitors of Table 5): ~90% | BNP, 1st run (Time 0) [3]: 912.4 pg/mL | BNP, 3 hours at 4° C. [3]: 830.8 pg/mL | BNP, 17 hours at 4° C. [3]: 715.7 pg/mL | BNP, 40 hours at 4° C. [3]: 688.7 pg/mL | BNP, 6 days at 4° C. [3]: 354.1 pg/mL | Recovery versus 1st run [3]: 38.8% | BNP, 1st run (Time 0) [4]: 901.3 pg/mL | BNP, 3 hours at 4° C. [4]: 861.6 pg/mL | BNP, 17 hours at 4° C. [4]: 874.2 pg/mL | BNP, 40 hours at 4° C. [4]: 799.7 pg/mL | BNP, 6 days at 4° C. [4]: 544.8 pg/mL | Recovery versus 1st run [4]: 60.4% | BNP, 1st run (Time 0) [5]: 921.7 pg/mL | BNP, 3 hours at 4° C. [5]: 909.0 pg/mL | BNP, 17 hours at 4° C. [5]: 984.8 pg/mL | BNP, 40 hours at 4° C. [5]: 871.6 pg/mL | BNP, 6 days at 4° C. [5]: 716.5 pg/mL | Recovery versus 1st run [5]: 77.7% | BNP, 1st run (Time 0) [6]: 967.6 pg/mL | BNP, 3 hours at 4° C. [6]: 980.1 pg/mL | BNP, 17 hours at 4° C. [6]: 1033.1 pg/mL | BNP, 40 hours at 4° C. [6]: 932.4 pg/mL | BNP, 6 days at 4° C. [6]: 854.4 pg/mL | Recovery versus 1st run [6]: 88.3% | BNP, 1st run (Time 0) [7]: 828.3 pg/mL | BNP, 3 hours at 4° C. [7]: 894.2 pg/mL | BNP, 17 hours at 4° C. [7]: 932.4 pg/mL | BNP, 40 hours at 4° C. [7]: 944.2 pg/mL | BNP, 6 days at 4° C. [7]: 822.2 pg/mL | Recovery versus 1st run [7]: 99.3%
